These are yes or no findings as the source states them, for the method shown. Binding seen in cells or lysates may run through a third protein. Binding calls can cover weak binding; strength is not graded here.
B1: RelB (protein, UniProt Q04863 1-558)
chain: MPSRRAARESAPELGALGSSDLSSLSLTVSRTTDELEIIDEYIKENGFGLDGTQLSEMPRLVPRGPASLSSVTLGPAAPPPPATPSWSCTLGRLVSPGPCPRPYLVITEQPKQRGMRFRYECEGRSAGSILGESSTEASKTLPAIELRDCGGLREVEVTACLVWKDWPHRVHPHSLVGKDCTDGVCRVRLRPHVSPRHSFNNLGIQCVRKKEIEAAIERKIQLGIDPYNAGSLKNHQEVDMNVVRICFQASYRDQQGHLHRMDPILSEPVYDKKSTNTSELRICRINKESGPCTGGEELYLLCDKVQKEDISVVFSTASWEGRADFSQADVHRQIAIVFKTPPYEDLEISEPVTVNVFLQRLTDGVCSEPLPFTYLPRDHDSYGVDKKRKRGLPDVLGELSSSDPHGIESKRRKKKPVFLDHFLPGHSSGLFLPPSALQPADSDFFPASISLPGLEPPGGPDLLDDGFAYDPSAPTLFTMLDLLPPAPPLASAVVGSGGAGATVVESSGPEPLSLDSFAAPGPGDVGTASLVGSNMFPNQYREAAFGGGLLSPGPEAT
B2: NPAS1 (protein, UniProt P97459 1-594)
chain: MATPYPRSGGRGEVKCGGGRGAGVPWDFLPGLMVKAPPGPCLQAQRKEKSRNAARWRRGKENLEFFELAKLLPLPGAISSQLDKASIVRLSVTYLRLRRFAALGAPPWGLRAVGPPAGLAPGRRGPVALVSEVFEQHLGGHILQSLDGFVFALNQEGKFLYISETVSIYLGLSQVELTGSSVFDYIHPGDHSEVLEQLGLRAASIGPPTPPSVSSSSSSSSSSLVDTPEIEASPTEASPAFRAQERSFFVRMKSTLTKRGLNVKASGYKVIHVTGRLRARALGLVALGHTLPPAPLAELPLHGHMIVFRLSLGLTILACESRVSDHMDMGPSELVGRSCYQFVHGQDATRIRQSHLDLLDKGQVVTGYYRWLQRAGGFVWLQSVATVAGNGKSTGEHHVLWVSHVLSNAEGSQTPLDAFQLPAIVSQEEPSRPGPEPTEEEPPVDGKQAVPADQDKDKDPQARGKRIKVEASPKEARGSEDSGEEELSDPPAPPRPEFTSVIRAGALKHDPVLPWGLTTPGDPSPALLHAGFLPPVVRGLCTPGTIRYGPAELSLMYPHLHRLGAGPSLPEAFYPTLGLPYPGPTGTRVQRKGD

Target: NFκB1 (mouse (endogenous in MC3T3-E1))
Assay: co-IP; IP with NFκB1 antibody from MC3T3-E1 protein extracts, IgG as negative control; blots for RelB, NPAS1 and p50

Binder | binding
B1 | binds
B2 | no binding

From article PMC10171860
